Data on four substances can be found in article PMC10526669.

Sequences of proteins named here, by UniProt entry; tags and fusion partners are left off.
UniProt P52294: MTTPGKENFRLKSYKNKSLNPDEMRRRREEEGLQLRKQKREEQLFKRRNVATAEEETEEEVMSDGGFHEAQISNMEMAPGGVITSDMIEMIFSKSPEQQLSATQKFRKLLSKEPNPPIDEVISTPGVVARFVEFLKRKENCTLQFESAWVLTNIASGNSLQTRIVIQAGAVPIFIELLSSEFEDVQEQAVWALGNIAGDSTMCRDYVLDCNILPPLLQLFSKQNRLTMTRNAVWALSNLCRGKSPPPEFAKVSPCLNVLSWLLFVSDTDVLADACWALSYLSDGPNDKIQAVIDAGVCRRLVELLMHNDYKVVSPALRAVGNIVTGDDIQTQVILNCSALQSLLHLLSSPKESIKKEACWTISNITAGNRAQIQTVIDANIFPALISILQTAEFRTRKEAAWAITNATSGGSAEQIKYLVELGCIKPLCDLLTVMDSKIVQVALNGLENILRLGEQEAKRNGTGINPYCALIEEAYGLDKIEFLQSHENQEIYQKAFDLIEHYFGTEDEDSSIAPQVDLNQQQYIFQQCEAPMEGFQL
UniProt Q60960: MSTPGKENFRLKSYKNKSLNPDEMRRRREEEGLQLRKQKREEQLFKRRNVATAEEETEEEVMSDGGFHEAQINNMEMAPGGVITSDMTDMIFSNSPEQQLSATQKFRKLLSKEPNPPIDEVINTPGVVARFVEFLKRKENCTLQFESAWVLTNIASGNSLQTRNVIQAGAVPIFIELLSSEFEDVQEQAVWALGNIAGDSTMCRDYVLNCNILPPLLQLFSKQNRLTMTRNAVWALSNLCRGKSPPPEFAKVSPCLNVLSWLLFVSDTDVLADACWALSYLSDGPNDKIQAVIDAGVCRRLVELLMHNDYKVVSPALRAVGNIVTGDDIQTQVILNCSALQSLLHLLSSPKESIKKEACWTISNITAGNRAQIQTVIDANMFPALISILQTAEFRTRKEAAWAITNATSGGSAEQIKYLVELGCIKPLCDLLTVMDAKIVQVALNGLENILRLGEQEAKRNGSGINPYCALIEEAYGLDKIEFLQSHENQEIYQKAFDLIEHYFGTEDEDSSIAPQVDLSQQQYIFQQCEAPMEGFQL
UniProt P40763: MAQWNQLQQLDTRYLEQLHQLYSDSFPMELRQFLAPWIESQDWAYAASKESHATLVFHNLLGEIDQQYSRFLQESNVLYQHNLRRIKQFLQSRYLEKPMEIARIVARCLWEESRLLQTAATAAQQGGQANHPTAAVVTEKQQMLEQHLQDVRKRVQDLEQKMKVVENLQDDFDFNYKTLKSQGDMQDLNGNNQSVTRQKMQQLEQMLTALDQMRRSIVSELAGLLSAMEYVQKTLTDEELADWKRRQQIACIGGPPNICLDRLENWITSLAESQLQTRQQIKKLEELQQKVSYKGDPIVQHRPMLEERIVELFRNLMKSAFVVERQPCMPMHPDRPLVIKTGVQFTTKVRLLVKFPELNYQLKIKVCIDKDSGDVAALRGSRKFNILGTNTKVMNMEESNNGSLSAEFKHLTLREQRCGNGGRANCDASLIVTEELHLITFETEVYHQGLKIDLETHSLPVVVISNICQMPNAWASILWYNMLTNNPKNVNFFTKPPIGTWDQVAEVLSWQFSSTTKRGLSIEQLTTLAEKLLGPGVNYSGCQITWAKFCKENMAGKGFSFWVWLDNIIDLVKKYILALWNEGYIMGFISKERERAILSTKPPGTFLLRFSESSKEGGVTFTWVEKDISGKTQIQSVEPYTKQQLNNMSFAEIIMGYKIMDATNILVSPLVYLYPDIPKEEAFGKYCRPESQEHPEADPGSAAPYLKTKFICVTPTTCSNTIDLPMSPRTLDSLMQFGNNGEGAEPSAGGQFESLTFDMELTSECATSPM
UniProt P42227: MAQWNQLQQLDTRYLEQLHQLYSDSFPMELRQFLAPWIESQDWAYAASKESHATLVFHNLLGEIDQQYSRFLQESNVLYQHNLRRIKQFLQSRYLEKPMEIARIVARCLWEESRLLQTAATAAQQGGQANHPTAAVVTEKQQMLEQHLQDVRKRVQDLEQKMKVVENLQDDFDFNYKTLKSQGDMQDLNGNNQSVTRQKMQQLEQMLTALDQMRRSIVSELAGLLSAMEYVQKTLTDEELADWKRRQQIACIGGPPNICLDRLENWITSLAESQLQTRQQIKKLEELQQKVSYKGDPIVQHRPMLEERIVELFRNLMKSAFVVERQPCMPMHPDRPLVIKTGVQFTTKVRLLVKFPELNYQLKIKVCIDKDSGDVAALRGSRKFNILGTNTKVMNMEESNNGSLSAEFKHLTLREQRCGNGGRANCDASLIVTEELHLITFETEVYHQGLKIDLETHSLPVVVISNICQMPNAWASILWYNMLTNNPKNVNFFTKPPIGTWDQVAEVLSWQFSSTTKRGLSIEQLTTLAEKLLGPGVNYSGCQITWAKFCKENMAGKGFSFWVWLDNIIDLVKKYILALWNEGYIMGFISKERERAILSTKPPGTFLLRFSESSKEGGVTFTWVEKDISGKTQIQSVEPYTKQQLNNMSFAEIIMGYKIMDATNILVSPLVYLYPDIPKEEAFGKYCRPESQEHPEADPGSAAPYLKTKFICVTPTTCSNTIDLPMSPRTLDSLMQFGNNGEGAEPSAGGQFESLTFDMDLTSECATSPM

In test [1] the target is T1, WT-Trx-1 (human wild-type Trx-1, lentivirally expressed) (human) (UniProt P10599).
T1 sequence: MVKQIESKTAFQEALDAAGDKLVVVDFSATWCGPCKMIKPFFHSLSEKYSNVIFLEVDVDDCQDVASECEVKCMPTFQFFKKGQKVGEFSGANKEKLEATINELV
As to the kind of experiment: co-IP; lysates of HT-29 cells stably expressing WT-Trx-1, MT-Trx-1, shTrx-1 or control vector, without or with IL-6; IP with anti-Trx-1 or anti-Kpnα1 antibody; immunoblot.

Test [2] concerns the target T2, Thioredoxin-1 (Trx-1), endogenous human (human (endogenous in HT-29, SW480 and human CRC tissue)) (UniProt P10599).
T2 sequence: T1 sequence
As to the kind of experiment: co-IP; endogenous proteins in total lysates (500 μg) of HT-29 and SW480 cells treated with 20 ng/mL IL-6 or vehicle for 2 h; IP with anti-Trx-1 or anti-STAT3 antibody or control IgG on protein G beads, 1 h at room temperature; immunoblot. For orientation: A western blot detects proteins with antibodies after separation by electrophoresis.

Test [3] deals with T2, Thioredoxin-1 (Trx-1), endogenous human (human (endogenous in HT-29, SW480 and human CRC tissue)). Nature of the test: co-IP; human CRC tissue lysates; IP with anti-Trx-1 or anti-STAT3 antibody; immunoblot with anti-pSTAT3, anti-Kpnα1 or anti-Trx-1.
The target in test [4] is T3, Trx-1, endogenous mouse (colon tissue) (mouse (endogenous in colon tissue)) (UniProt P10639).
T3 sequence: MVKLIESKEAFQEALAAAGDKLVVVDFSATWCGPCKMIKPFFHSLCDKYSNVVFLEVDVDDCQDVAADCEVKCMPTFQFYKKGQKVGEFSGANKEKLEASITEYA
As to the kind of experiment: co-IP; lysates of mouse colon tissue (control, AOM/DSS model, AOM/DSS plus PX-12); IP with anti-Trx-1 antibody or control IgG; immunoblot with anti-pSTAT3, anti-Kpnα1 or anti-Trx-1.

The target of test [5] is T2, Thioredoxin-1 (Trx-1), endogenous human (human (endogenous in HT-29, SW480 and human CRC tissue)). Nature of the test: co-IP; nuclear and cytosolic extracts of HT-29 cells without or with IL-6; IP with anti-Trx-1 or anti-STAT3; immunoblot.

Results are given in words; binding and its absence hold for the method and conditions named. In cells and extracts the contact can be indirect. Some binding calls cover weakened binding; strength is not graded here.

For the substance “karyopherin α1 (Kpnα1), endogenous human (from UniProt P52294 1-538)”, the binding entry in test [1], in test [2] and in test [3] was “binds” throughout.

Regarding “karyopherin α1 (Kpnα1), endogenous mouse (colon tissue) (from UniProt Q60960 1-538)”, the binding entry in test [4] was “binds”.

As for “pSTAT3 (STAT3 phosphorylated at Tyr705), endogenous human (from UniProt P40763 1-770)”, the binding entry in test [1], in test [2], in test [5] and in test [3] was “binds” each time.

Take “pSTAT3, endogenous mouse (colon tissue) (from UniProt P42227 1-770)”: the binding entry in test [4] is “binds”.
